Source: article PMC9603599, “NAC1 Maintains Root Meristem Activity by Repressing the Transcription of E2Fa in Arabidopsis”
Construct, isoform or probe ends are uncertain for at least one entry. At least one verdict rests on a figure or table, not on a statement of the authors. Where a protein sequence is shown, tags need not be part of it.

Biological target: T1, GST-NAC1(1-199) (Arabidopsis thaliana) (UniProt Q84TE6)
T1 sequence (looked up): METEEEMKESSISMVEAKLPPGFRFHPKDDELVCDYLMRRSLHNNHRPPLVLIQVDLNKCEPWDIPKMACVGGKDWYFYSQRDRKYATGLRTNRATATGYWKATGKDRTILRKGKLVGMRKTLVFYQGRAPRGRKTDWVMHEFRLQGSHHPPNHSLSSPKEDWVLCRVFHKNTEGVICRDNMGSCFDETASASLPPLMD
Assay: competition with a labelled probe
Details: unlabeled, LightShift Chemiluminescent EMSA kit (Thermo 20148), manufacturer's instructions, pH and temperature not stated, recombinant protein, residues 1-199, protein details: GST (N-terminal, pGEX-4T-1)

Sequence	binding result (against biotin P1)	binding result (against biotin P2)
CGTGAAATGCCAGTGGTCTATGATCGGATTCTCTGTTTCCGTTCTCCTTCTTTTTTTGGGCCTTAAATCCGTTT (double strand) [unlabeled competitor P1 (E2Fa-COM-F1/R1)]	binds	
CGTGTAGAGTTGCGATTTGCAGAGAATTGTGATTCTACAATTGGAGGCAAGATGATGAATGTGTGAACTGATTAGCGTAA (double strand) [unlabeled competitor P2 (E2Fa-COM-F2/R2)]		binds
